# Reference: the supplement of paper PMC6411743
# ± gives the standard deviation of the averaged measurements. The entries are a selection whose mix differs from that of the whole data set.
# Legend:
# Experiment in all cases: NP40-soluble protein abundance relative to vehicle (solubility fold change) (ratio); higher = more soluble protein in presence of AMP-PNP
# UniProt Q96RF0-2 = molecular target: T1, UniProt Q96RF0-2
# T1 sequence (whole entry): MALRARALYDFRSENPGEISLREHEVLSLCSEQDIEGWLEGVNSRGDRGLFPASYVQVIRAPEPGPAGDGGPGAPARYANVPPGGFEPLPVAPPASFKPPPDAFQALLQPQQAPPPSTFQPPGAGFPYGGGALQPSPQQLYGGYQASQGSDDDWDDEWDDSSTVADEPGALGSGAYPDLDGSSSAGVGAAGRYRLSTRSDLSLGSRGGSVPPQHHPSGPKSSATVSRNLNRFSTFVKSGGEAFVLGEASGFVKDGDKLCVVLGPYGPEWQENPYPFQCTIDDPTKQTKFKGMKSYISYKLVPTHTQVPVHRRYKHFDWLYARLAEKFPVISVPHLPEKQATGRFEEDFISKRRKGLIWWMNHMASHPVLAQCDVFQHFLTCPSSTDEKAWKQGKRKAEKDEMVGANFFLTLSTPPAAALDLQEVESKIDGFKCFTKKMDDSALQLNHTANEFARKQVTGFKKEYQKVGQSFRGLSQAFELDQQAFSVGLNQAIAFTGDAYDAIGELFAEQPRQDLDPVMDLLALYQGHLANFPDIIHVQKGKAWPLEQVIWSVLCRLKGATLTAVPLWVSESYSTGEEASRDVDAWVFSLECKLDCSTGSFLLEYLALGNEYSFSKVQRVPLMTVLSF
# Procedure, shortened: (§1)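 Data come from three independent experiments in which Dounce-homogenised Jurkat crude lysate was treated at eight concentrations from 0.1 to 10 mM. Treatment ran 10 min at room temperature and then 3 min at 37 °C, after which 0.8% NP40 and benzonase were added for 60 min at 4 °C before ultracentrifugation. The supernatant underwent TMT labelling and LC-MS/MS, and vsn-normalised intensities were expressed as fold change against the detergent-processed vehicle in each replicate.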
# [1] = molecular target: T2, UniProt Q99808 and related entries
# T2 sequence (whole entry): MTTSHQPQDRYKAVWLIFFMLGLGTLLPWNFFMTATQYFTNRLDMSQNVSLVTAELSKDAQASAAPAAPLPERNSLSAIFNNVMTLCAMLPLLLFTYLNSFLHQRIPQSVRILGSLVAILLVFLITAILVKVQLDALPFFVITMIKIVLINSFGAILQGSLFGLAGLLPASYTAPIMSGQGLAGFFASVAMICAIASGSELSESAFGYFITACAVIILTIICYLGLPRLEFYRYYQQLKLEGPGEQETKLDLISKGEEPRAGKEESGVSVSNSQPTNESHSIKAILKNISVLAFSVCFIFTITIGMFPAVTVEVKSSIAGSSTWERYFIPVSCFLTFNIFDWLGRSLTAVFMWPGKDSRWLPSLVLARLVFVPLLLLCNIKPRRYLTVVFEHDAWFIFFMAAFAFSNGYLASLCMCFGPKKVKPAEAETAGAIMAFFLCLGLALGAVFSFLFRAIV
# Procedure, shortened: as §1
# [2] = molecular target: T3, UniProt Q9BPX7 and related entries
# T3 sequence (whole entry): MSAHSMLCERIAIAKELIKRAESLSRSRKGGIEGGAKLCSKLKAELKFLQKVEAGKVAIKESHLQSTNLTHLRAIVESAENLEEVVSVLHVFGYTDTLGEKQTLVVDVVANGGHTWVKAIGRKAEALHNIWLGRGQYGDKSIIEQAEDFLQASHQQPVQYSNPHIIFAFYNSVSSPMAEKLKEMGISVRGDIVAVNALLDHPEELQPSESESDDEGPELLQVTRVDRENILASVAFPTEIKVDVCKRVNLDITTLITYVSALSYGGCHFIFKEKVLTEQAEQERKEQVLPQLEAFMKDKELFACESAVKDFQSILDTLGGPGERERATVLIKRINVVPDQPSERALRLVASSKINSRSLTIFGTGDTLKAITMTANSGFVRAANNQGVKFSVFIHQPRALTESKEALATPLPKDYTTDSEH
# Procedure, shortened: as §1
# UniProt Q9BQ61 = molecular target: T4, UniProt Q9BQ61
# T4 sequence (whole entry): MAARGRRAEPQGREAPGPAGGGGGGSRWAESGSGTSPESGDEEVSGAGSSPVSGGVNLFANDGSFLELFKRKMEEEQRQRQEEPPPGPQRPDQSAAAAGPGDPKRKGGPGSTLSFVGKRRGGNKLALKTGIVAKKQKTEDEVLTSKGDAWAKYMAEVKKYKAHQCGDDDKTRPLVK
# Procedure, shortened: as §1
# UniProt Q9BRT3 = molecular target: T5, UniProt Q9BRT3
# T5 sequence (whole entry): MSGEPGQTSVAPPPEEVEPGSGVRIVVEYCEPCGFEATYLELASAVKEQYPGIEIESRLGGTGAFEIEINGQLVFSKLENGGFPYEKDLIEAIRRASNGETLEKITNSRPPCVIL
# Procedure, shortened: as §1
# UniProt Q9BRX9 = molecular target: T6, UniProt Q9BRX9
# T6 sequence (whole entry): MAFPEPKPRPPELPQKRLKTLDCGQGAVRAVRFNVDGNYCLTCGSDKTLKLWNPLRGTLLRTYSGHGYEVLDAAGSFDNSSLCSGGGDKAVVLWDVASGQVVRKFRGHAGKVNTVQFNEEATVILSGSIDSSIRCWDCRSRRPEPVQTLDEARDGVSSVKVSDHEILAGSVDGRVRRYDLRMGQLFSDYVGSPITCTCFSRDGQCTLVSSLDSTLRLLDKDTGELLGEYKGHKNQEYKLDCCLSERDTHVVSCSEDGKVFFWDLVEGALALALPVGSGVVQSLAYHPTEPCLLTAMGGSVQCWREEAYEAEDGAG
# Procedure, shortened: as §1
# [3] = molecular target: T7, UniProt Q9BTC8 and related entries
# T7 sequence (whole entry): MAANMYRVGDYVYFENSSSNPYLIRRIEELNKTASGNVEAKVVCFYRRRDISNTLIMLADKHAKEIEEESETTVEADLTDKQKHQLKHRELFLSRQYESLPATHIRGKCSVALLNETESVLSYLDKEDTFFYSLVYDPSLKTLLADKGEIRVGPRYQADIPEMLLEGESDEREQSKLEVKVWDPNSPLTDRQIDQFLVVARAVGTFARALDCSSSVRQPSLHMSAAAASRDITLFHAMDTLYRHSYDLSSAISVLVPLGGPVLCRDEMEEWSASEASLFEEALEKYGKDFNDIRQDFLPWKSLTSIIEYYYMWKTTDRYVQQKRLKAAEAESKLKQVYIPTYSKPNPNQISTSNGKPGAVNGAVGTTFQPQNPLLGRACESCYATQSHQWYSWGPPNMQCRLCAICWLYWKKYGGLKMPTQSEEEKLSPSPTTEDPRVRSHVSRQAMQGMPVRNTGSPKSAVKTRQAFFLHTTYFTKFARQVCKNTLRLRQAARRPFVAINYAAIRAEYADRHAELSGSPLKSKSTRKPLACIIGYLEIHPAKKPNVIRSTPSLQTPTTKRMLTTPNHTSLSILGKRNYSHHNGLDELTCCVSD
# Procedure, shortened: as §1
# [4] = molecular target: T8, UniProt Q9BU02 and related entries
# T8 sequence (whole entry): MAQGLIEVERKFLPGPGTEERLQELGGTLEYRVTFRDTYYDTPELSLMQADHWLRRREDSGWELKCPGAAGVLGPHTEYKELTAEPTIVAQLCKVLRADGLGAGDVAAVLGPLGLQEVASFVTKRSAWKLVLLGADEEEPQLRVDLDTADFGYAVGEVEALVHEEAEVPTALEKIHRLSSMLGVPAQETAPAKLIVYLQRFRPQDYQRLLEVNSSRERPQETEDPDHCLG
# Procedure, shortened: as §1
# UniProt Q9BUA3 = molecular target: T9, UniProt Q9BUA3
# T9 sequence (whole entry): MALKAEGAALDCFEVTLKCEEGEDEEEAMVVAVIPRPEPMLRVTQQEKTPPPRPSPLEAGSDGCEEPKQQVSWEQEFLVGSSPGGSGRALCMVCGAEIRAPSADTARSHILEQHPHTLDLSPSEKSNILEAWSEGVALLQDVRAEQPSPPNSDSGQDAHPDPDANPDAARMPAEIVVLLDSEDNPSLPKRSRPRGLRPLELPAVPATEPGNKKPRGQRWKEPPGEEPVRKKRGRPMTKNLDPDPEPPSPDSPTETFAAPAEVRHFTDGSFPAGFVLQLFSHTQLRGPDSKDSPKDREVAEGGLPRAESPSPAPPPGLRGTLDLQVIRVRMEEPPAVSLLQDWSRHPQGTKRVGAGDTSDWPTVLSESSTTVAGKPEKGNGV
# Procedure, shortened: as §1
structure (smiles),measurement,setting,value
Nc1ncnc2c1ncn2[C@@H]1O[C@H](COP(=O)(O)OP(=O)(O)NP(=O)(O)O)[C@@H](O)[C@H]1O [adenylyl imidodiphosphate],NP40-soluble protein abundance,UniProt Q96RF0-2; concentration: 6mM,1.01 ± 0.012
same,NP40-soluble protein abundance,UniProt Q96RF0-2; concentration: 8mM,1.03 ± 0.0045
same,NP40-soluble protein abundance,UniProt Q96RF0-2; concentration: 10mM,0.9904 ± 0.0087
same,NP40-soluble protein abundance,[1]; concentration: 1mM,0.919 ± 0.083
same,NP40-soluble protein abundance,[1]; concentration: 2mM,0.846 ± 0.03
same,NP40-soluble protein abundance,[1]; concentration: 4mM,0.928 ± 0.022
same,NP40-soluble protein abundance,[1]; concentration: 6mM,0.937 ± 0.084
same,NP40-soluble protein abundance,[1]; concentration: 8mM,0.957 ± 0.074
same,NP40-soluble protein abundance,[1]; concentration: 10mM,0.89 ± 0.03
same,NP40-soluble protein abundance,[2]; concentration: 1mM,1.03 ± 0.038
same,NP40-soluble protein abundance,[2]; concentration: 2mM,1.04 ± 0.013
same,NP40-soluble protein abundance,[2]; concentration: 4mM,1.02 ± 0.029
same,NP40-soluble protein abundance,[2]; concentration: 6mM,1.02 ± 0.03
same,NP40-soluble protein abundance,[2]; concentration: 8mM,1.02 ± 0.027
same,NP40-soluble protein abundance,[2]; concentration: 10mM,1.04 ± 0.02
same,NP40-soluble protein abundance,UniProt Q9BQ61; concentration: 1mM,1.01 ± 0.032
same,NP40-soluble protein abundance,UniProt Q9BQ61; concentration: 2mM,1.02 ± 0.088
same,NP40-soluble protein abundance,UniProt Q9BQ61; concentration: 4mM,0.973 ± 0.057
same,NP40-soluble protein abundance,UniProt Q9BQ61; concentration: 6mM,0.967 ± 0.077
same,NP40-soluble protein abundance,UniProt Q9BQ61; concentration: 8mM,0.906 ± 0.05
same,NP40-soluble protein abundance,UniProt Q9BQ61; concentration: 10mM,1.02 ± 0.013
same,NP40-soluble protein abundance,UniProt Q9BRT3; concentration: 1mM,0.926 ± 0.021
same,NP40-soluble protein abundance,UniProt Q9BRT3; concentration: 2mM,1 ± 0.064
same,NP40-soluble protein abundance,UniProt Q9BRT3; concentration: 4mM,0.917 ± 0.046
same,NP40-soluble protein abundance,UniProt Q9BRT3; concentration: 6mM,0.8874 ± 0.0078
same,NP40-soluble protein abundance,UniProt Q9BRT3; concentration: 8mM,0.8618 ± 0.0024
same,NP40-soluble protein abundance,UniProt Q9BRT3; concentration: 10mM,0.815 ± 0.021
same,NP40-soluble protein abundance,UniProt Q9BRX9; concentration: 1mM,1 ± 0.038
same,NP40-soluble protein abundance,UniProt Q9BRX9; concentration: 2mM,0.959 ± 0.053
same,NP40-soluble protein abundance,UniProt Q9BRX9; concentration: 4mM,1.01 ± 0.045
same,NP40-soluble protein abundance,UniProt Q9BRX9; concentration: 6mM,0.988 ± 0.028
same,NP40-soluble protein abundance,UniProt Q9BRX9; concentration: 8mM,0.999 ± 0.01
same,NP40-soluble protein abundance,UniProt Q9BRX9; concentration: 10mM,0.99 ± 0.028
same,NP40-soluble protein abundance,[3]; concentration: 1mM,0.976 ± 0.035
same,NP40-soluble protein abundance,[3]; concentration: 2mM,0.98 ± 0.022
same,NP40-soluble protein abundance,[3]; concentration: 4mM,1 ± 0.082
same,NP40-soluble protein abundance,[3]; concentration: 6mM,1.08 ± 0.013
same,NP40-soluble protein abundance,[3]; concentration: 8mM,1.09 ± 0.032
same,NP40-soluble protein abundance,[3]; concentration: 10mM,1.1 ± 0.053
same,NP40-soluble protein abundance,[4]; concentration: 1mM,1.03 ± 0.054
same,NP40-soluble protein abundance,[4]; concentration: 2mM,1.06 ± 0.05
same,NP40-soluble protein abundance,[4]; concentration: 4mM,1.04 ± 0.08
same,NP40-soluble protein abundance,[4]; concentration: 6mM,1.01 ± 0.049
same,NP40-soluble protein abundance,[4]; concentration: 8mM,1.02 ± 0.082
same,NP40-soluble protein abundance,[4]; concentration: 10mM,0.994 ± 0.098
same,NP40-soluble protein abundance,UniProt Q9BUA3; concentration: 1mM,1.02 ± 0.026
same,NP40-soluble protein abundance,UniProt Q9BUA3; concentration: 2mM,1.036 ± 0.0066
same,NP40-soluble protein abundance,UniProt Q9BUA3; concentration: 4mM,1.013 ± 0.0039
same,NP40-soluble protein abundance,UniProt Q9BUA3; concentration: 6mM,0.981 ± 0.048

# Exported with tabs: part of the list above
structure (smiles)	measurement	setting	value
Nc1ncnc2c1ncn2[C@@H]1O[C@H](COP(=O)(O)OP(=O)(O)NP(=O)(O)O)[C@@H](O)[C@H]1O [adenylyl imidodiphosphate]	NP40-soluble protein abundance	UniProt Q96RF0-2; concentration: 8mM	1.03 ± 0.0045
same	NP40-soluble protein abundance	[1]; concentration: 6mM	0.937 ± 0.084
same	NP40-soluble protein abundance	[2]; concentration: 6mM	1.02 ± 0.03
same	NP40-soluble protein abundance	UniProt Q9BQ61; concentration: 1mM	1.01 ± 0.032
same	NP40-soluble protein abundance	UniProt Q9BQ61; concentration: 8mM	0.906 ± 0.05
same	NP40-soluble protein abundance	UniProt Q9BRT3; concentration: 10mM	0.815 ± 0.021
same	NP40-soluble protein abundance	UniProt Q9BRX9; concentration: 1mM	1 ± 0.038
same	NP40-soluble protein abundance	UniProt Q9BRX9; concentration: 2mM	0.959 ± 0.053
same	NP40-soluble protein abundance	UniProt Q9BRX9; concentration: 8mM	0.999 ± 0.01
same	NP40-soluble protein abundance	[3]; concentration: 6mM	1.08 ± 0.013
same	NP40-soluble protein abundance	[4]; concentration: 4mM	1.04 ± 0.08
same	NP40-soluble protein abundance	UniProt Q9BUA3; concentration: 1mM	1.02 ± 0.026
same	NP40-soluble protein abundance	UniProt Q9BUA3; concentration: 2mM	1.036 ± 0.0066
